Data reported in patent publication US20240390581A1, “METHOD AND APPARATUS FOR A STEADY STATE INT[…] OF SEROTONERGIC DRUGS” (PSOULMED, LLC, priority 2021, published 2024).

System: vein
Test: Additives to the intravenous DMT infusion, flow rate and venous injury
Assay type: in vivo
Text: In this respect, the inventors addressed the following goals: • 1. […] A method for combining goals 1 and/or 2 with nitroglycerine ointment on the vein to be cannulated prior to gaining intravenous access, which improves vein patency and dilution from blood flow as well as normal saline. • 4. A method for creating an injectable form of a DMT salt such as fumarate, or freebase DMT in a solution or suspension or emulsion in an iso-osmolar or near iso-osmolar carrier such as hyaluronic acid or polyethylene glycol, as to minimize molecular interaction with the walls and endothelium of the peripheral vasculature, while maintaining water soluble or miscible properties as to not adversely affect the pharmacokinetics. • 5. A method for utilizing goal 4, with any other drug or substance that may cause venous irritation, to minimize the risk of thrombophlebitis, such as nanoparticles or crystals in suspension, or similarly, chemotherapeutic drugs, anesthetic agents and the like.

Compound | effect on flow rate (magnesium 0.1 mg/mL to 100 mg/mL in DMT infusion or maintenance line) | effect on flow rate (heparin 0.1-100 IU per mL)
[Mg+2] [magnesium] | improve flow rate | 
heparin |  | improve flow rate
